Measured values reported in publication PMC12208539.
Results are given in words; binding and its absence hold for the method and conditions named. In cells and extracts the contact can be indirect. Some binding calls cover weakened binding; strength is not graded here.

By UniProt entry, the sequences of proteins in these tests, tags left out.
UniProt P02340: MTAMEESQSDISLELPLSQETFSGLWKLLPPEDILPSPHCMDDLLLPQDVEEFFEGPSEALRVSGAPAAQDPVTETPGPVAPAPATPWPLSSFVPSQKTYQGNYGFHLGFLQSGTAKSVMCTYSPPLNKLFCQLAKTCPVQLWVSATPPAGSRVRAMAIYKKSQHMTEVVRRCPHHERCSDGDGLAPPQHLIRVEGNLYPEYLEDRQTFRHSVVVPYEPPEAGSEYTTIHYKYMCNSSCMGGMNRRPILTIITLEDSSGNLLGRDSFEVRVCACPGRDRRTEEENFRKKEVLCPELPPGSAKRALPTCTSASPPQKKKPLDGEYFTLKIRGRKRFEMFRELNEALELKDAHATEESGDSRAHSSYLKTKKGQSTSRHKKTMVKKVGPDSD

Molecular target: T1, Ppil2, endogenous in mouse erythroid cells (mouse (endogenous in bone marrow Ter119+ cells)) (UniProt Q9D787)
T1 sequence: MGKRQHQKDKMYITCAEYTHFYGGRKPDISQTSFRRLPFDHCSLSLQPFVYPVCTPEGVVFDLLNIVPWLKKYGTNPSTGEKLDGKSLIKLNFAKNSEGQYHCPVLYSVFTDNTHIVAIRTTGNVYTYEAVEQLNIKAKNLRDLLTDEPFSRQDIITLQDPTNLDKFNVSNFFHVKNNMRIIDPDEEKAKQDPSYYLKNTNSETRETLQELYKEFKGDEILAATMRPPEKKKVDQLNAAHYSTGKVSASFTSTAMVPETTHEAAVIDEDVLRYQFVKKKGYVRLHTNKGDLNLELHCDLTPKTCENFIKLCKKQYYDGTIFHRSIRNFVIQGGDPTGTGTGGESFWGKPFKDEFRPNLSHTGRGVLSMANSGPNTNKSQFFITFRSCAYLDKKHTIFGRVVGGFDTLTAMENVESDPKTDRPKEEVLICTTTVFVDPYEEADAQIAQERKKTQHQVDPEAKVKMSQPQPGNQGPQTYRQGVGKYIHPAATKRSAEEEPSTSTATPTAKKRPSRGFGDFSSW
Test: co-IP; endogenous IP: PPIL2 antibody or IgG with 1 mg lysate of mouse bone marrow Ter119+ cells, 4°C overnight, protein A/G beads; Western blotting

p53, endogenous in mouse erythroid cells (from UniProt P02340 1-390)
binding: binds
